Results reported in PubChem BioAssay AID504444 (National Center for Advancing Translational Sciences (NCATS), 2011).
Among all 360,000 compounds or so, about 7,500 (2.1%) were called active. Inconclusive results, whose numbers are uncertain, are shown with a selection of clear calls. Calls come from the whole dose curve; as a rule, active = well fitted inhibition curve with a large enough effect; inconclusive = small, poorly fitted or top-dose-only effect, or effect the other way; inactive = flat fitted curve, though single readings scatter. Potencies of inconclusive entries are doubtful fits and often do not repeat.
% is set by controls: 0 for no effect and ±100 for the full control effect; potency is the fitted concentration of half-maximal effect.

Experiment: Nrf2 qHTS screen for inhibitors; note: nearly all actives have a fitted effect of over 60% in size
Details: A549 ARE-Fluc reporter, luciferase luminescence, 18-24 h; activity change, negative = inhibition: at 46 µM (top of the series)
Procedure, shortened: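 Concentration-response testing used A549 ARE_Fluc cells at 5000 cells/well. Following an 18-24 h compound incubation, viability was read by fluorescence (Ex 405/Em 525) and luciferase output by luminescence.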
For `Cc1ccc(C)c(OCC(O)CN2CCC(CN3C(=O)c4cccc5cccc(c45)C3=O)CC2)c1` (configuration not stated), the “activity change, negative = inhibition” value was inactive: -20%.
In the case of `O=C(NNC(=O)c1ccccc1Br)c1ccc(SCC2CCCO2)c([N+](=O)[O-])c1` (configuration not stated), the Potency is reported as inconclusive: 8.2 µM [falling, partial curve].
With `Cc1cccc(NC(=O)c2ccc(N(Cc3ccccc3)S(C)(=O)=O)cc2)c1` the Potency was inconclusive: 32.6 µM [falling, single point].
With `Cc1cccc(NC(=O)c2ccc(C(=O)c3ccccc3)o2)c1` the Potency was inconclusive: 23.1 µM [activator, single point].
For `O=C(Nc1ccc(S(=O)(=O)N2CCCCC2)cc1)c1ccccc1F`, the Potency was inconclusive: 20.6 µM [falling, single point].
In the case of `O=C(CSc1c2c(nc3ccc(Cl)cc13)CCCC2)N1CCN(c2cccc(Cl)c2)CC1`, the Potency is reported as active: 9.2 µM.
With `COc1ccc(CNC(=O)c2cnc3sc(N4CCCC4)nn3c2=O)cc1OC` the Potency was inconclusive: 25.9 µM [falling, single point].
In the case of `CC(=O)c1ccccc1NC(=O)c1ccc2c(c1)NC(=O)C(C)S2` (configuration not stated), the Potency is reported as inconclusive: 11.6 µM [activator, partial curve].
For `C=CCn1c(SCN2C(=O)c3ccccc3C2=O)nc2ccc(Cl)cc2c1=O`, the Potency was inconclusive: 2.91 µM [falling, full curve, poor fit].
For `CN(C(=O)c1ccc(OC2CCN(CCc3ccccc3)CC2)cc1)C1CCOC1` (configuration not stated), the Potency was inconclusive: 32.6 µM [activator, partial curve, poor fit].
For `CCCCN(CCCC)S(=O)(=O)c1ccc(C(=O)Nc2nnc(COC)o2)cc1`, the Potency was inconclusive: 7.31 µM [falling, partial curve].
In the case of `CCc1nnc(NC(=O)C(NC(=O)c2ccccc2Cl)C(C)C)s1` (configuration not stated), the “activity change, negative = inhibition” value is reported as inactive: 0.64%.
In the case of `CC1CC(C)CN(S(=O)(=O)c2ccc(C(=O)NCc3ccco3)cc2)C1` (configuration not stated), the Potency is reported as inconclusive: 10.3 µM [falling, partial curve].
For `O=C(CSc1nc2ccccc2o1)Nc1ccccc1N1CCCCCC1`, the Potency was inconclusive: 20.6 µM [falling, single point].
With `COc1ccc(-c2cc(-c3cc(C)ccc3O)[nH]n2)cc1` the Potency was inconclusive: 29.1 µM [falling, single point].
For `Cc1cc(C)n(-c2ccc(C(=O)OCC(=O)Nc3cc(Cl)ccc3[N+](=O)[O-])cc2)n1`, the Potency was inconclusive: 4.11 µM [activator, full curve, poor fit].
For `O=[N+]([O-])c1cc([N+](=O)[O-])c(Oc2cccnc2Br)cc1NN1CCCCC1`, the Potency was inconclusive: 29.1 µM [falling, single point].
With `O=C(CNCc1ccccc1)Nc1ccc(Oc2ccccc2)cc1` the Potency was inconclusive: 13 µM [activator, partial curve, poor fit].
In the case of `O=C(CNC(=O)c1ccc(F)cc1)N/N=C/c1cc(Br)ccc1OCc1ccccc1`, the Potency is reported as inconclusive: 16.4 µM [falling, single point].
For `Cc1ccc(-n2nc(C(=O)NN)c(C)c(C#N)c2=O)cc1Cl`, the Potency was inconclusive: 18.4 µM [activator, single point].
In the case of `O=C(N/N=C/c1ccc(O)cc1)c1ccc(NC(=O)c2ccccc2Br)cc1`, the Potency is reported as inconclusive: 25.9 µM [falling, single point].
For `CCc1ccc2c(c1)c(=O)c(S(=O)(=O)c1ccc(F)cc1)cn2CC(=O)Nc1ccc(C)cc1C`, the Potency was inconclusive: 4.61 µM [activator, partial curve, poor fit].
With `COc1ccc(N)c2c1C(=O)c1ccccc1C2=O` the Potency was inconclusive: 0.013 µM [activator, full curve, poor fit].
For `O=C(NNc1nc2ccc(Cl)cc2s1)c1cc(-c2cccs2)nc2ccccc12`, the Potency was inconclusive: 32.6 µM [falling, single point].
For `CN1C(=S)N2CCCN2C1c1ccccc1` (configuration not stated), the “activity change, negative = inhibition” value was inactive: 1.56%.
For `CN1C(C(=O)Nc2ccc(F)cc2F)=CC(c2ccco2)=NS1(=O)=O`, the Potency was inconclusive: 23.1 µM [falling, single point].
For `CC(=O)c1c(C)oc2ccc(NS(=O)(=O)c3ccc(F)cc3C)cc12`, the Potency was inconclusive: 23.1 µM [falling, single point].
For `CCOc1ccc2c(c1)S/C(=C\c1cccs1)C(=O)N2`, the Potency was inconclusive: 10.3 µM [activator, single point].
With `Cc1nnc(NCc2ccccc2)c2c1nnn2Cc1ccccc1Cl` the “activity change, negative = inhibition” value was inactive: -11.5%.
In the case of `Cc1ccc(S(=O)(=O)N2CCN(C(=O)CSc3ncn[nH]3)CC2)c(C)c1`, the Potency is reported as inconclusive: 9.2 µM [falling, partial curve, poor fit].
With `Cc1cccc(CSc2ncnc3c2cnn3Cc2ccccc2)c1` the Potency was inconclusive: 8.2 µM [falling, partial curve, poor fit].
With `Cc1cccc(C)c1NC(=O)c1oc2ccc3c(c2c1C)C(=O)CC(C)(C)O3` the Potency was inconclusive: 29.1 µM [falling, single point].
With `Cc1cc2oc(C(=O)Nc3c(C(=O)Nc4ccccc4)oc4ccccc34)cc(=O)c2cc1C` the “activity change, negative = inhibition” value was inactive: 22.8%.
In the case of `CCOc1cc(/C=C\[N+](=O)[O-])ccc1OCC(=O)N1CCOCC1`, the Potency is reported as inconclusive: 16.4 µM [falling, partial curve].
In the case of `Cc1cc([N+](=O)[O-])ccc1NC(=O)c1cccc(NC(=O)C(C)C)c1`, the Potency is reported as inconclusive: 3.66 µM [activator, full curve].
In the case of `Cc1cccn2c(=O)c(C(=O)NCCCN3CCCCC3C)c(O)nc12` (configuration not stated), the Potency is reported as inconclusive: 10.3 µM [activator, partial curve, poor fit].
In the case of `NC(=O)CSc1ncc(-c2ccc([N+](=O)[O-])cc2)[nH]1`, the Potency is reported as inconclusive: 25.9 µM [activator, single point].
In the case of `Cc1[nH]c2ccccc2c1C(=O)CN1CCCC(C)C1` (configuration not stated), the Potency is reported as inconclusive: 11.6 µM [activator, single point].
In the case of `Cc1ccccc1C(=O)Nc1ccc(-c2nc3ccc(C(=O)c4ccccc4)cc3[nH]2)cc1`, the Potency is reported as active: 20.6 µM.
In the case of `CN(Cc1ccccc1)C(=O)c1ccc(NC(=O)Cc2cccc(NC(=O)C3CCCN(C(=O)C4CCC4)C3)c2)cc1` (configuration not stated), the Potency is reported as inconclusive: 14.6 µM [falling, partial curve, poor fit].
In the case of `CC(C)(Oc1ccc(Cl)cc1)C(=O)NC1=NN(c2ccccc2)C(=O)C1`, the Potency is reported as inconclusive: 29.1 µM [falling, single point].
For `C=C(CC1([C@@H](NP(=O)(c2ccccc2)c2ccccc2)[C@H]2C[C@@H]2CCCC)CC1)c1ccccc1`, the Potency was inconclusive: 29.1 µM [falling, single point].
In the case of `COc1cc(NS(=O)(=O)c2cc(C)ccc2OC)c(OC)cc1Cl`, the Potency is reported as inconclusive: 29.1 µM [falling, single point].
For `CCCCn1c(CN2CCN(CCO)CC2)nc2ccccc21`, the Potency was inconclusive: 2.06 µM [activator, partial curve, poor fit].
With `COC(=O)C1CCC(=O)N1C(c1ccc(OC)cc1)c1cc(OC)c(OC)c(OC)c1` (configuration not stated) the Potency was inconclusive: 14.6 µM [activator, partial curve].
For `COc1ccc(N=C2NC(=O)/C(=C/c3ccco3)S2)cc1`, the Potency was inconclusive: 0.517 µM [falling, full curve, poor fit].
In the case of `CC1CCC(NC(=O)c2ccc3c(c2)N(Cc2ccccc2)C(=O)c2ccccc2S3=O)CC1` (configuration not stated), the Potency is reported as inconclusive: 1.84 µM [falling, partial curve, poor fit].
With `COc1cc(-c2nnn(CC(=O)Nc3ccc(OC(F)(F)F)cc3)n2)cc(OC)c1OC` the Potency was inconclusive: 25.9 µM [falling, single point].
In the case of `CCCC(=O)Nc1ccc(N2CCCCC2)cc1`, the Potency is reported as inconclusive: 8.2 µM [activator, partial curve].
In the case of `CCN(CC)S(=O)(=O)c1ccc2oc(C(=O)NCC3COc4ccccc4O3)c(C)c2c1` (configuration not stated), the Potency is reported as inconclusive: 29.1 µM [falling, single point].
In the case of `COc1ccc(-c2cc3cc(F)ccc3cn2)cc1`, the Potency is reported as inconclusive: 20.6 µM [activator, partial curve].
For `c1ccc(-c2ccc(-n3ccnc3)cc2)cc1`, the Potency was inconclusive: 16.4 µM [activator, single point].
In the case of `CCOC(=O)c1cccc(NC(=O)CN2C(=O)c3ccccc3Sc3ncccc32)c1`, the “activity change, negative = inhibition” value is reported as inactive: -28.5%.
For `CC(/C=N/NC(=O)c1nnn(-c2nonc2N)c1CN(C)C)=C\c1ccco1`, the “activity change, negative = inhibition” value was inactive: 0.029%.
With `COc1ccc(-c2nc(CS(=O)CC(=O)NCc3ccc(C)cc3)c(C)o2)cc1OC` (configuration not stated) the “activity change, negative = inhibition” value was inactive: -8%.
With `CN(CC(=O)Nc1ccc(Cl)c(C(F)(F)F)c1)C(=O)c1ccc(S(=O)(=O)N2CCOCC2)cc1` the Potency was inconclusive: 0.82 µM [falling, full curve, poor fit].
For `O=C1CCC(C(=O)N2CCSCC2)CN1CCc1cccc(F)c1` (configuration not stated), the Potency was inconclusive: 29.1 µM [activator, single point].
For `COc1ccc(OC)c(Nc2nc3nonc3nc2N2CCCC(C)C2)c1` (configuration not stated), the “activity change, negative = inhibition” value was inactive: -7.71%.
In the case of `COc1cccc(/C=N/NC(=O)c2cc(-c3cccn3C)n[nH]2)c1O`, the Potency is reported as inconclusive: 25.9 µM [falling, single point].
In the case of `Cc1ccccc1NC(=O)C(C)c1cccc(C(=O)c2ccccc2)c1` (configuration not stated), the Potency is reported as inconclusive: 16.4 µM [falling, partial curve, poor fit].
For `COc1ccccc1N1CCN(C(C)C(=O)Nc2ccc(S(=O)(=O)N3CCOCC3)cc2)CC1` (configuration not stated), the Potency was inconclusive: 23.1 µM [falling, single point].
For `O=C1CC(N2CCN(c3ccc(S(=O)(=O)N4CCCC4)cc3)CC2)C(=O)N1c1ccc(F)cc1` (configuration not stated), the Potency was inconclusive: 18.4 µM [activator, single point].
